Results from the supplement of paper PMC12067093, “Discovery and optimisation of a covalent ligand for TRIM25 and its application to targeted protein ubiquitination” (Chemical Science, 2025).
The other results are listed elsewhere or left out.
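Further: competitive chemoproteomic profiling in live THP-1 cells with an iodoacetamide desthiobiotin (IA-DTB) probe, comparing probe-labelled peptide intensities in compound-treated cells against DMSO-treated controls.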

The chains behind the UniProt entries cited, without tags or fusion partners. Where a name states a change or a piece, a line headed by the entry shows the natural chain unless it says otherwise.
UniProt Q6IQ22: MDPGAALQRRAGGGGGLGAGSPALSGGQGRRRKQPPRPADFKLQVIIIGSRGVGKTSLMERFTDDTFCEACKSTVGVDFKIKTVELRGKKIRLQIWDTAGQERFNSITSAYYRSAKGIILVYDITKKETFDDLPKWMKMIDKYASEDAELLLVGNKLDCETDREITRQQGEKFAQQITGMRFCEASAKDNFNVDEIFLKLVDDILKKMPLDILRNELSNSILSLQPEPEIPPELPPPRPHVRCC
UniProt Q9H974: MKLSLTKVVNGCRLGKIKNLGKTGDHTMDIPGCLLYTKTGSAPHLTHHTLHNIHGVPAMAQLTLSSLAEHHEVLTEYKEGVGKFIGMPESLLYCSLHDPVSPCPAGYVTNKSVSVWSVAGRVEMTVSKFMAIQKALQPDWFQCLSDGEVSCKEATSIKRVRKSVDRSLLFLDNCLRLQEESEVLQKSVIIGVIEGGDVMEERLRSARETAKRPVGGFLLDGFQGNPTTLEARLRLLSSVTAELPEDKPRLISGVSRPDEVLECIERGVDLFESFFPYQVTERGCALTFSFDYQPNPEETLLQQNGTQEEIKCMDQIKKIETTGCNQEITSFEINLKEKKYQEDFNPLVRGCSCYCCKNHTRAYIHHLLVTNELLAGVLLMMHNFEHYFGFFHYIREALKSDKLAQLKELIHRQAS
UniProt Q9Y3P9: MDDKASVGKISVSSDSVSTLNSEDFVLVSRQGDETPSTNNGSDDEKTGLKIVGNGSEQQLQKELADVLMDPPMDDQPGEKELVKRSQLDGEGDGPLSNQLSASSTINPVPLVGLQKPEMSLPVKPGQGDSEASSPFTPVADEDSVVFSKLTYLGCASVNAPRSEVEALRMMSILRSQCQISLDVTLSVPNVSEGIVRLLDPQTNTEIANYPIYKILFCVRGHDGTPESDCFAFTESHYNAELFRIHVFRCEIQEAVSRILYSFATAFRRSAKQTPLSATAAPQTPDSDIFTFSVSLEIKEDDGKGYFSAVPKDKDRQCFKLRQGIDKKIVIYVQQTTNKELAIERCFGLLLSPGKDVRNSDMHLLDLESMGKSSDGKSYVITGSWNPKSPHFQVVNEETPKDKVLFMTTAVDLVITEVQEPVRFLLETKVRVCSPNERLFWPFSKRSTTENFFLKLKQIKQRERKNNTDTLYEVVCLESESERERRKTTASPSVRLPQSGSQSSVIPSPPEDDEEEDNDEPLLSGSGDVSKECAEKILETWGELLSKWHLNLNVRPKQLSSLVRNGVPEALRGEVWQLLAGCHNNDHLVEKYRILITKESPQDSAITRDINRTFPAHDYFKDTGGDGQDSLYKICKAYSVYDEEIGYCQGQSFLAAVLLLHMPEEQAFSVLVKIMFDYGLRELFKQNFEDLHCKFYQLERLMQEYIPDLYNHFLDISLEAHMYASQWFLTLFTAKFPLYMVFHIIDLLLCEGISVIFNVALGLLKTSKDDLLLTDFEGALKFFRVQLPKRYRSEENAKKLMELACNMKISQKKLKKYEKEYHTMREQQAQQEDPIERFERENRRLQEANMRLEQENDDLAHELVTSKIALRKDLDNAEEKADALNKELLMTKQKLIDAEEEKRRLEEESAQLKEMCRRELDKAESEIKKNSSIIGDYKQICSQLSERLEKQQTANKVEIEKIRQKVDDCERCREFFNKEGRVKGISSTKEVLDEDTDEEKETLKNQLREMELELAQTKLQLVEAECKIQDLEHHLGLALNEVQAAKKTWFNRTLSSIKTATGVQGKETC
UniProt P49023, whole entry, looked up: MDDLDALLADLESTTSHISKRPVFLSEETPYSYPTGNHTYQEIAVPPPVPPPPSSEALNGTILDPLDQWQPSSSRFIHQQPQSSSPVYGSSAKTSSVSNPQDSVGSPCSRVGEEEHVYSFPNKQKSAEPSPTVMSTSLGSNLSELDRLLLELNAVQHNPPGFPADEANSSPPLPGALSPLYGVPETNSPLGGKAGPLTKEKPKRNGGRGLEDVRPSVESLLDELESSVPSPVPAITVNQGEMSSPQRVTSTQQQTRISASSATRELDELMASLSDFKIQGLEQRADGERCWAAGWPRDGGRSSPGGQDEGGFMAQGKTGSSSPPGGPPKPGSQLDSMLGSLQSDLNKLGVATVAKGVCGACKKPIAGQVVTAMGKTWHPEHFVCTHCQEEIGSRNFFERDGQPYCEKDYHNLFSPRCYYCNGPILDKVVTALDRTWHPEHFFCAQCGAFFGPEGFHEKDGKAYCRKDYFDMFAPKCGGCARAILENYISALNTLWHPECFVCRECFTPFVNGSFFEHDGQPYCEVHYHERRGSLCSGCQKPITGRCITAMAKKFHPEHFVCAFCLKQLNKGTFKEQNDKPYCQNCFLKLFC
UniProt Q92878: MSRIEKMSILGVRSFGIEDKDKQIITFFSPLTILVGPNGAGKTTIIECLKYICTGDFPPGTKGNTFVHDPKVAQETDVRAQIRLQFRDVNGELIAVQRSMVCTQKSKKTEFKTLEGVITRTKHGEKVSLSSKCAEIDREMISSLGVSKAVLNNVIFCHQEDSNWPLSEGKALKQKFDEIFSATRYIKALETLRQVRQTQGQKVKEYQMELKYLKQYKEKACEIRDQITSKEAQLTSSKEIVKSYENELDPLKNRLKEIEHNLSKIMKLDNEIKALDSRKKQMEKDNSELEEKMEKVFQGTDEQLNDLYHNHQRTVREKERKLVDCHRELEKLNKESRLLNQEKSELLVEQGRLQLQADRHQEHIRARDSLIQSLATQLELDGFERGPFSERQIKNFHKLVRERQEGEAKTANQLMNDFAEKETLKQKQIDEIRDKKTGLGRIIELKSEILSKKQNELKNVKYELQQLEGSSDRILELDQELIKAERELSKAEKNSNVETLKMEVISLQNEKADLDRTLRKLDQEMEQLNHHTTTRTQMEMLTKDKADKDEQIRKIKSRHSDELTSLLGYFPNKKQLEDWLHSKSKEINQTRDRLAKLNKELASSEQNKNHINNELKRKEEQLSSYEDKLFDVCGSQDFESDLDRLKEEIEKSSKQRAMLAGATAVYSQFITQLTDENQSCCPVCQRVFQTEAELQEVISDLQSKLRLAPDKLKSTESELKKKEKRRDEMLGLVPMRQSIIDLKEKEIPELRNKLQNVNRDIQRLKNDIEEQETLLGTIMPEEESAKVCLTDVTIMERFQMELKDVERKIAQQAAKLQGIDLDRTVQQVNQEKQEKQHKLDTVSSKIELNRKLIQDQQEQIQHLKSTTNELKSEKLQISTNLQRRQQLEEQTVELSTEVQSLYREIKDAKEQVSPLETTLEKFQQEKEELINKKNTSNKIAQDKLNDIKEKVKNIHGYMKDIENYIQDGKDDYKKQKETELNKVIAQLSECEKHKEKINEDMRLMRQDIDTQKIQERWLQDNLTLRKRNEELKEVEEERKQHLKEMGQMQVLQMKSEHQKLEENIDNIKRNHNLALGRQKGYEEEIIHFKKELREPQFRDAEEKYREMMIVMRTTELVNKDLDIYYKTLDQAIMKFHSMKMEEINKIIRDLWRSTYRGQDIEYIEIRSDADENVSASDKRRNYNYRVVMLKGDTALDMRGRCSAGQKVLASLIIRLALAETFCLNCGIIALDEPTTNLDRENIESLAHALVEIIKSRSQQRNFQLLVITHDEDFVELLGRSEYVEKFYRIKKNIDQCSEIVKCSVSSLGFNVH
UniProt Q9BXR0: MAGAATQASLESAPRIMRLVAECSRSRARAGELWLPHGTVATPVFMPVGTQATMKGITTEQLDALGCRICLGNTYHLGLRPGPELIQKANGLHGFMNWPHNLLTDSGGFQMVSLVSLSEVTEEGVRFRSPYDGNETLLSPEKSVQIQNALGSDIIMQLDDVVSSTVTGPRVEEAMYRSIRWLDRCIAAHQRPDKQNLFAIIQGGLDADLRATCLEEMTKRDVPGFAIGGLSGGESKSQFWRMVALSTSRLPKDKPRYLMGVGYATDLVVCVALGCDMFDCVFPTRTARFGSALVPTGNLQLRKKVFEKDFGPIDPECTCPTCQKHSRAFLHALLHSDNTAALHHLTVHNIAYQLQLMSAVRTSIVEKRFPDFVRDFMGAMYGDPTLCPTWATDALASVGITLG
UniProt Q9UL25: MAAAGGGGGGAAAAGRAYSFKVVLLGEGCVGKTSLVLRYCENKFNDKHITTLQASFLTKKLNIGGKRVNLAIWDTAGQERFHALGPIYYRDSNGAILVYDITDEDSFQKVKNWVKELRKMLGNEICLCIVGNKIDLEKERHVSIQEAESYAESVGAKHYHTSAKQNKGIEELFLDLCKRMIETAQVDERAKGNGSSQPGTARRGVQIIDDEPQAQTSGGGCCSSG
UniProt Q15397: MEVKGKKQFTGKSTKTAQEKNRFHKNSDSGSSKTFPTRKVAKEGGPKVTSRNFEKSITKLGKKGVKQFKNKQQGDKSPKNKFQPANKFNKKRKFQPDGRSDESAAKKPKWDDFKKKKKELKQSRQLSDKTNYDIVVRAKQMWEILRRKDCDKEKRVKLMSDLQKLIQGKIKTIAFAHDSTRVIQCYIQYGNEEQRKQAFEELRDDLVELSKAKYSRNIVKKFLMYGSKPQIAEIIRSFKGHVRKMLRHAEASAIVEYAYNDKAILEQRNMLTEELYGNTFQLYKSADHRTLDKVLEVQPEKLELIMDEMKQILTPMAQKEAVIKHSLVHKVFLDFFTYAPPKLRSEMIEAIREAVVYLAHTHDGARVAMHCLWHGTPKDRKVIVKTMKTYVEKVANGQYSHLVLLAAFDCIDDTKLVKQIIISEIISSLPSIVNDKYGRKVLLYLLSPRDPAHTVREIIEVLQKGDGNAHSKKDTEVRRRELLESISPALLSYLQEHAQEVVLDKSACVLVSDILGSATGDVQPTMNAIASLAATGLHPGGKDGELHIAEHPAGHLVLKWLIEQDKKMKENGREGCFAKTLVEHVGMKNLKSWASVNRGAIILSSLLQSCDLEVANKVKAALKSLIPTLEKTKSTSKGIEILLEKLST
UniProt Q2TAL8: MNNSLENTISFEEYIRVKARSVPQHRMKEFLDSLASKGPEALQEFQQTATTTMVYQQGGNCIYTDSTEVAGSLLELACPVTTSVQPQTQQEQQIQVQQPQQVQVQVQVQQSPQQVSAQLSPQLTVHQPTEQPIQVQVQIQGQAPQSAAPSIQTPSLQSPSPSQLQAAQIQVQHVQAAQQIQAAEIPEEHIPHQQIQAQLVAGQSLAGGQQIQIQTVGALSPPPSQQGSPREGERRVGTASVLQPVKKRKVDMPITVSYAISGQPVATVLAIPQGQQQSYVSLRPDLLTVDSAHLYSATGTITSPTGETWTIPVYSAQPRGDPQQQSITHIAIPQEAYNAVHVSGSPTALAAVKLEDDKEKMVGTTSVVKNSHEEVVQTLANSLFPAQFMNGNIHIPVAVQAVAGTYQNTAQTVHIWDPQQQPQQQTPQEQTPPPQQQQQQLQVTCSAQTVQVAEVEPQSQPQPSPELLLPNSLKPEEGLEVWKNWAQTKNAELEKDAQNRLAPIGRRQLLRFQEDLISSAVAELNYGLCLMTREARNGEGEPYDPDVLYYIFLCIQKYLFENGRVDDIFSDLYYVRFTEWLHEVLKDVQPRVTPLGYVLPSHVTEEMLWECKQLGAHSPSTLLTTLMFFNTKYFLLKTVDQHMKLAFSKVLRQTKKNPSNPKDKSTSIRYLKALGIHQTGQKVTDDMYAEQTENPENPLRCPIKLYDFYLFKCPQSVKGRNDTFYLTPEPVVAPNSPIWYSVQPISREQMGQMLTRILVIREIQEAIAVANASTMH
UniProt Q6ZSR9: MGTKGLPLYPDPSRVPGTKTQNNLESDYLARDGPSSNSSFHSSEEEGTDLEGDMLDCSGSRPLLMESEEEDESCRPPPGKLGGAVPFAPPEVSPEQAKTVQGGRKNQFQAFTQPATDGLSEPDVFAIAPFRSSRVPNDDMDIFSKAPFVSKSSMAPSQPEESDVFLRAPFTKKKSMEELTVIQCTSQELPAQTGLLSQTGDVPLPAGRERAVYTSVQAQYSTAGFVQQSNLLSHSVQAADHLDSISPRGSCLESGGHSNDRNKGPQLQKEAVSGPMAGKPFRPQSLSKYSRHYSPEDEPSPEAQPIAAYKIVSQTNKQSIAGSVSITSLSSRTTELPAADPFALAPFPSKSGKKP
UniProt Q9NS91, whole entry: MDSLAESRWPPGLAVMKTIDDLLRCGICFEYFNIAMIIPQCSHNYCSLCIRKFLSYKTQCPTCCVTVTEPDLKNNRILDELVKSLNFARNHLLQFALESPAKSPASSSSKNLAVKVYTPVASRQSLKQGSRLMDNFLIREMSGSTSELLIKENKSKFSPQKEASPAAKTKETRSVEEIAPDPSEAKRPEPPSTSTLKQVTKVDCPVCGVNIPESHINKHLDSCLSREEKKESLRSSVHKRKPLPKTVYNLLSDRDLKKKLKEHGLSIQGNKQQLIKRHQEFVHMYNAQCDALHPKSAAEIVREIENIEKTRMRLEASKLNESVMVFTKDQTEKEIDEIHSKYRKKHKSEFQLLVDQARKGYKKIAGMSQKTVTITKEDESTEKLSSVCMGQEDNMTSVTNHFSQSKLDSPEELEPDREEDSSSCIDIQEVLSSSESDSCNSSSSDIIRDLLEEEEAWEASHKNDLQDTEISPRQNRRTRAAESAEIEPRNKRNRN

These targets were tested with CC1Cc2ccccc2N1C(=O)C1CCCN(C1)C(=O)CCl (mixture of isomers) [TRIM25 ligand 11 (diastereomer mixture)] (assay: probe-labelled cysteine peptide fold change vs DMSO (competition) (log2 fold change); higher = less target engagement (more negative = stronger competition)). Conditions: 10 µM; THP-1; incubation time: 4 h.
In the case of “RAC3_P60763_105_HHCPHTPILLVGTK (UniProt P60763)”, the “probe-labelled cysteine peptide fold change” value is reported as -0.00887.
“RAB12_Q6IQ22_159_LDCETDREITR (UniProt Q6IQ22)” was tested, and the “probe-labelled cysteine peptide fold change” value was 0.223.
For “QTRT2_Q9H974_312_CMDQIK (UniProt Q9H974)”, the “probe-labelled cysteine peptide fold change” value was -0.0399.
“R3HCC1L_Q7Z5L2_665_VFCSYQK (UniProt Q7Z5L2)” was tested, and the “probe-labelled cysteine peptide fold change” value was -0.0725.
With “QRSL1_Q9H0R6_483_AFCDQQLLTVAK (UniProt Q9H0R6)” the “probe-labelled cysteine peptide fold change” value was 0.0551.
For “RACK1_P63244_138_LWNTLGVCK (UniProt P63244)”, the “probe-labelled cysteine peptide fold change” value was 0.00679.
For “RABGAP1_Q9Y3P9_1026_LQLVEAECK (UniProt Q9Y3P9)”, the “probe-labelled cysteine peptide fold change” value was 0.132.
PXN_P49023_361_GVCGACK (UniProt P49023) was tested, and the “probe-labelled cysteine peptide fold change” value was 0.0145.
For “RAD50_Q92878_788_VCLTDVTIMER (UniProt Q92878)”, the “probe-labelled cysteine peptide fold change” value was 0.0899.
With “R3HCC1_Q9Y3T6_5_ALLCLDGVFLSSAENDFVHR (UniProt Q9Y3T6+R3HCC1)” the “probe-labelled cysteine peptide fold change” value was -0.132.
“PXN_P49023_523_ECFTPFVNGSFFEHDGQPYCEVHYHER (UniProt P49023)” was tested, and the “probe-labelled cysteine peptide fold change” value was 0.0258.
For “RAB3GAP1_Q15042_783_HLLPCVIHAAVLK (UniProt Q15042)”, the “probe-labelled cysteine peptide fold change” value was -0.107.
“QTRT1_Q9BXR0_67_GITTEQLDALGCR (UniProt Q9BXR0)” was tested, and the “probe-labelled cysteine peptide fold change” value was -0.0588.
With “RAB21_Q9UL25_29_VVLLGEGCVGK (UniProt Q9UL25)” the “probe-labelled cysteine peptide fold change” value was 0.19.
In the case of “RABGEF1_Q9UJ41_157_GIHVDQSDLLCK (UniProt Q9UJ41)”, the “probe-labelled cysteine peptide fold change” value is reported as -0.0345.
For “PUM3_Q15397_371_VAMHCLWHGTPK (UniProt Q15397)”, the “probe-labelled cysteine peptide fold change” value was 0.0661.
In the case of “QRICH1_Q2TAL8_713_CPQSVK (UniProt Q2TAL8)”, the “probe-labelled cysteine peptide fold change” value is reported as -0.091.
With UniProt Q6ZSR9_Q6ZSR9_251_GSCLESGGHSNDR the “probe-labelled cysteine peptide fold change” value was 0.0287.
In the case of “RABGAP1_Q9Y3P9_346_CFGLLLSPGK (UniProt Q9Y3P9)”, the “probe-labelled cysteine peptide fold change” value is reported as -0.13.
“RAD23A_P54725_344_ALGFPESLVIQAYFACEK (UniProt P54725)” was tested, and the “probe-labelled cysteine peptide fold change” value was -0.0237.
In the case of “RAD18_Q9NS91_223_HLDSCLSR (UniProt Q9NS91)”, the “probe-labelled cysteine peptide fold change” value is reported as -0.0164.

Same assay, conditions: 50 µM; THP-1; incubation time: 4 h
With “RABEPK_Q7Z6M1_222_FYDDLHCIDISDMK (UniProt Q7Z6M1)” the “probe-labelled cysteine peptide fold change” value was 0.12.
With “RAB3GAP1_Q15042_510+511_CCLLHQK (UniProt Q15042)” the “probe-labelled cysteine peptide fold change” value was 0.00668.
In the case of “RABGAP1_Q9Y3P9_230_GHDGTPESDCFAFTESHYNAELFR (UniProt Q9Y3P9)”, the “probe-labelled cysteine peptide fold change” value is reported as -0.0552.
For “PXK_Q7Z7A4_112_GLQNYLNVITTNHILSNCELVK (UniProt Q7Z7A4)”, the “probe-labelled cysteine peptide fold change” value was 0.106.
With “RAB3GAP2_Q9H2M9_792+793_DILDKPQSICCLHTMLSLLSK (UniProt Q9H2M9)” the “probe-labelled cysteine peptide fold change” value was -0.0923.
“RAB11FIP1_Q6WKZ4_711_NTSSLELEESLPEQPETGRQEEELPRFPCK (UniProt Q6WKZ4)” was tested, and the “probe-labelled cysteine peptide fold change” value was -0.236.
“RAB11FIP1_Q6WKZ4_1192_VANCSLGTATIISENLNNEVMMK (UniProt Q6WKZ4)” was tested, and the “probe-labelled cysteine peptide fold change” value was -0.12.
In the case of “PUS10_Q3MIT2_223_SLFEVSVVFAHPETVEDCHFLAAICPDCFKPAK (UniProt Q3MIT2)”, the “probe-labelled cysteine peptide fold change” value is reported as -0.0105.
In the case of “RAB8A_P61006_123_CDVNDK (UniProt P61006)”, the “probe-labelled cysteine peptide fold change” value is reported as 0.0238.
With “RABL3_Q5HYI8_27_SSLVHLLCQNQVLGNPSWTVGCSVDVR (UniProt Q5HYI8)” the “probe-labelled cysteine peptide fold change” value was -0.0205.
For “R3HCC1_Q9Y3T6_78_TVICHQDIR (UniProt Q9Y3T6+R3HCC1)”, the “probe-labelled cysteine peptide fold change” value was 0.0856.
For “PYGB_P11216_446_RINMAHLCVIGSHAVNGVAR (UniProt P11216)”, the “probe-labelled cysteine peptide fold change” value was 0.274.
In the case of “RAB20_Q9NX57_179_MLDEQDVPAAEQMCFETSAK (UniProt Q9NX57)”, the “probe-labelled cysteine peptide fold change” value is reported as -0.351.
“RAB22A_Q9UL26_120_CDLIDVR (UniProt Q9UL26)” was tested, and the “probe-labelled cysteine peptide fold change” value was 0.0334.
For “RAB21_Q9UL25_128_MLGNEICLCIVGNK (UniProt Q9UL25)”, the “probe-labelled cysteine peptide fold change” value was 0.137.
In the case of “RAC3_P60763_105_HHCPHTPILLVGTK (UniProt P60763)”, the “probe-labelled cysteine peptide fold change” value is reported as 0.0468.
“RAB12_Q6IQ22_159_LDCETDREITR (UniProt Q6IQ22)” was tested, and the “probe-labelled cysteine peptide fold change” value was 0.0515.
In the case of “QTRT2_Q9H974_312_CMDQIK (UniProt Q9H974)”, the “probe-labelled cysteine peptide fold change” value is reported as -0.112.
For “R3HCC1L_Q7Z5L2_665_VFCSYQK (UniProt Q7Z5L2)”, the “probe-labelled cysteine peptide fold change” value was 0.147.
With “QRSL1_Q9H0R6_483_AFCDQQLLTVAK (UniProt Q9H0R6)” the “probe-labelled cysteine peptide fold change” value was 0.131.
“RACK1_P63244_138_LWNTLGVCK (UniProt P63244)” was tested, and the “probe-labelled cysteine peptide fold change” value was 0.0323.
In the case of “RABGAP1_Q9Y3P9_1026_LQLVEAECK (UniProt Q9Y3P9)”, the “probe-labelled cysteine peptide fold change” value is reported as 0.135.
PXN_P49023_361_GVCGACK (UniProt P49023) was tested, and the “probe-labelled cysteine peptide fold change” value was 0.211.
In the case of “RAD50_Q92878_788_VCLTDVTIMER (UniProt Q92878)”, the “probe-labelled cysteine peptide fold change” value is reported as 0.0746.
“R3HCC1_Q9Y3T6_5_ALLCLDGVFLSSAENDFVHR (UniProt Q9Y3T6+R3HCC1)” was tested, and the “probe-labelled cysteine peptide fold change” value was 0.00353.
With “PXN_P49023_523_ECFTPFVNGSFFEHDGQPYCEVHYHER (UniProt P49023)” the “probe-labelled cysteine peptide fold change” value was 0.0357.
In the case of “RAB3GAP1_Q15042_783_HLLPCVIHAAVLK (UniProt Q15042)”, the “probe-labelled cysteine peptide fold change” value is reported as -0.00935.
For “QTRT1_Q9BXR0_67_GITTEQLDALGCR (UniProt Q9BXR0)”, the “probe-labelled cysteine peptide fold change” value was 0.169.
With “RAB21_Q9UL25_29_VVLLGEGCVGK (UniProt Q9UL25)” the “probe-labelled cysteine peptide fold change” value was 0.224.
With “RABGEF1_Q9UJ41_157_GIHVDQSDLLCK (UniProt Q9UJ41)” the “probe-labelled cysteine peptide fold change” value was -0.189.
“PUM3_Q15397_371_VAMHCLWHGTPK (UniProt Q15397)” was tested, and the “probe-labelled cysteine peptide fold change” value was -0.0747.
For “QRICH1_Q2TAL8_713_CPQSVK (UniProt Q2TAL8)”, the “probe-labelled cysteine peptide fold change” value was -0.106.
In the case of UniProt Q6ZSR9_Q6ZSR9_251_GSCLESGGHSNDR, the “probe-labelled cysteine peptide fold change” value is reported as -0.245.
In the case of “RABGAP1_Q9Y3P9_346_CFGLLLSPGK (UniProt Q9Y3P9)”, the “probe-labelled cysteine peptide fold change” value is reported as -0.0597.
With “RAD23A_P54725_344_ALGFPESLVIQAYFACEK (UniProt P54725)” the “probe-labelled cysteine peptide fold change” value was -0.063.
For “RAD18_Q9NS91_223_HLDSCLSR (UniProt Q9NS91)”, the “probe-labelled cysteine peptide fold change” value was 0.125.
